Measured values from paper PMC4265151.
These are yes or no findings as the source states them, for the method shown. Binding can be weak; no strength is given.

The chains behind the UniProt entries cited, without tags or fusion partners. Where a name states a change or a piece, a line headed by the entry shows the natural chain unless it says otherwise.
UniProt Q9C660: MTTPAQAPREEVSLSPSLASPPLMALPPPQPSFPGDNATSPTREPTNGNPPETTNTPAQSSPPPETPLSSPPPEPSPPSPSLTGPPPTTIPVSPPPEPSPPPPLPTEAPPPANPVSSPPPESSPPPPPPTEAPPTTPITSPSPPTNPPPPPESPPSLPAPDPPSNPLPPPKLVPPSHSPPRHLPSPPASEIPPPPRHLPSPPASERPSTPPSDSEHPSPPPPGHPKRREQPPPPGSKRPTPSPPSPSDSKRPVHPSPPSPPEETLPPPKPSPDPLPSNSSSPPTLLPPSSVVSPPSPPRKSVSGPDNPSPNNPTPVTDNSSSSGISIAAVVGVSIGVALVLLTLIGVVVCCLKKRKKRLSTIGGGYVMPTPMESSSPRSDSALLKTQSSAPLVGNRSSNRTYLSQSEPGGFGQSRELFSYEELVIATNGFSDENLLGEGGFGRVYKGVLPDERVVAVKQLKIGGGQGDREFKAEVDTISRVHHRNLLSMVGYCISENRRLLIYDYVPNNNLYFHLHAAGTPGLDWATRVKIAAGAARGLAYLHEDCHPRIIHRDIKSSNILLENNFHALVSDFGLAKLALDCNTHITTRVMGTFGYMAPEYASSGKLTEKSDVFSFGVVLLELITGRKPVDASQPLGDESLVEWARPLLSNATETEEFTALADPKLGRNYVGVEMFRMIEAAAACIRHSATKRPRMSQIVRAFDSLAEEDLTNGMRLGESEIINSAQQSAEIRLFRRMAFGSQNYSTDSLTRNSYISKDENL
UniProt Q9CAL8: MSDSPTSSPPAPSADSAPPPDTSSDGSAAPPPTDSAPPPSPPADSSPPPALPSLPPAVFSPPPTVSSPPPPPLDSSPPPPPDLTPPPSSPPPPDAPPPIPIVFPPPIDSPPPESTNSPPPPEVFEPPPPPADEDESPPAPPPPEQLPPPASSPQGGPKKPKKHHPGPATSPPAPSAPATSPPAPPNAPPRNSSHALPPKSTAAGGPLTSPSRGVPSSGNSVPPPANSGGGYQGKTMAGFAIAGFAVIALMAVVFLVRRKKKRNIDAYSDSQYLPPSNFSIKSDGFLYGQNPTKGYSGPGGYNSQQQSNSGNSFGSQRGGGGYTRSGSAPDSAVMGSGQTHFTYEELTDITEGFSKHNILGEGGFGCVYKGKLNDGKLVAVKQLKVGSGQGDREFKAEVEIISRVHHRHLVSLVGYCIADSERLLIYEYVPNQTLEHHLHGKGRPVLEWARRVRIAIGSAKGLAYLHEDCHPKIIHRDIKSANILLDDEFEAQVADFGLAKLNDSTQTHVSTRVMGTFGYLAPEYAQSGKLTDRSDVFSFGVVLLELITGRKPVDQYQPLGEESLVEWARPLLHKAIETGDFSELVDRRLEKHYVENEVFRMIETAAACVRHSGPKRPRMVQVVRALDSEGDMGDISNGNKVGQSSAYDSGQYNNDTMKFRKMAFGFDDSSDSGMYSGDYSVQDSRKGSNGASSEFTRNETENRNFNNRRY
UniProt Q9FFW5: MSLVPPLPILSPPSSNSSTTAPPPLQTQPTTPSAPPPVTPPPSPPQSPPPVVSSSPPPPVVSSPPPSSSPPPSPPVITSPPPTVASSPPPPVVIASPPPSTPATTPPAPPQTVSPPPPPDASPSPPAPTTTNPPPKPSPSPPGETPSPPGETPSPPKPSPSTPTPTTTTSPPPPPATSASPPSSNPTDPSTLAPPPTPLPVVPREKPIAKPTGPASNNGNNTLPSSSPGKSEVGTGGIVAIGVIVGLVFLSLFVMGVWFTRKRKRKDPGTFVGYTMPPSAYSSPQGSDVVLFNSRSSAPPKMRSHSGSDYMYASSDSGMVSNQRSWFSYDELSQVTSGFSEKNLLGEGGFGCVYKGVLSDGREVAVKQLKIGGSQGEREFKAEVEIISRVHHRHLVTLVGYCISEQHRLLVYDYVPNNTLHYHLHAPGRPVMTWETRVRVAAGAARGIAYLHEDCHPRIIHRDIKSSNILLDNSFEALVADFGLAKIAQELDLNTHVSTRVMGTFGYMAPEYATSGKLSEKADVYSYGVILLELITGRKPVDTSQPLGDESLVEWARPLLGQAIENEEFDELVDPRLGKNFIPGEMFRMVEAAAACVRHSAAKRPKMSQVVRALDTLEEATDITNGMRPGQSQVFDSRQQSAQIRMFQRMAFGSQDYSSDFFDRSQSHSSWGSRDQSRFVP
UniProt Q9SX31: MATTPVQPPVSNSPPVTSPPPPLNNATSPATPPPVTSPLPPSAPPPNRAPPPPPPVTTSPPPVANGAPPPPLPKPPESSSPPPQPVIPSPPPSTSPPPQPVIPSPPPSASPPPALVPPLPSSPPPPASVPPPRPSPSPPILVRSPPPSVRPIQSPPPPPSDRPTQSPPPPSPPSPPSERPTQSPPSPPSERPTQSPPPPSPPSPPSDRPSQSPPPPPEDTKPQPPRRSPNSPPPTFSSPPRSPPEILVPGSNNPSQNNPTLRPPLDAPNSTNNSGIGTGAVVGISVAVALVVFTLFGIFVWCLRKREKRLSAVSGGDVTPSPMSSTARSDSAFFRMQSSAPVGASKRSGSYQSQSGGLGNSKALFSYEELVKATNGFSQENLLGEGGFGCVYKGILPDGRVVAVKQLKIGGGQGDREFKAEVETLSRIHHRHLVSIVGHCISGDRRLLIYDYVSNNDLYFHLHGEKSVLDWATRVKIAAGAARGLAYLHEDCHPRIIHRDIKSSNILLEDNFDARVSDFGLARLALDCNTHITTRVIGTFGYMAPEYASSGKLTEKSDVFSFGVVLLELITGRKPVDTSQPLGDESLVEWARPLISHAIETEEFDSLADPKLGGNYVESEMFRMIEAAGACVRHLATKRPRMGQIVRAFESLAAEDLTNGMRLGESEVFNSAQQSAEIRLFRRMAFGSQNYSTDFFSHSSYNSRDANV

Tests used:
Test in all cases: two-hybrid; pairwise: pGBKT7 (GAL4 DNA-binding domain) and pGADT7 (GAL4 activation domain) plasmids in yeast Y187, SD-Leu-Trp; filter lifts for beta-galactosidase with X-Gal (blue colour); negatives monitored for up to 24 h, PERK8 and -9 transformants for shorter times because of some background activity
[1] = target: PERK10 cytosolic kinase domain (Arabidopsis thaliana) (UniProt Q9C660)
[2] = target: PERK13 cytosolic kinase domain (Arabidopsis thaliana) (UniProt Q9CAL8)
[3] = target: PERK8 cytosolic kinase domain (Arabidopsis thaliana) (UniProt Q9FFW5)
[4] = target: PERK9 cytosolic kinase domain (Arabidopsis thaliana) (UniProt Q9SX31)

binding [1] | binding [2] | binding [3] | binding [4] | Binder
no binding | no binding | no binding | no binding | KIPK1_(303–934) (domain or fragment, UniProt Q9LFA2 303-934) NISSSAVDSEQKGKLDDAPNSGTENGKTVRKVTRMIPRPKQPKKKILLKKKLKIGVVSATYPTKDDEEIVPSLDSSANQLLCQRCHCSLKSTSIDDNPPSYTSSHNPKICTDSLSSVSNKEAHQGSDENSSGSCNVSQSSEADIVIMKQDVSSSNNSGIGAMVEKETENPTSSEKFEFSLSSKDSLGDYSRSTSISEESNLSRFSCGNKPHMSMDVRWEAIKHIKVQYGSLGLRHFNLLKKLGCGDIGTVYLAELIGTNCLFAIKVMDNEFLARRKKSPRAQAEREILKMLDHPFLPTLYAQFTSDNLSCLVMEYCPGGDLHVLRQKQLGRCFPEPAARFYVAEILLALEYLHMLGIIYRDLKPENILVREDGHIMLTDFDLSLRCAVNPTLVRSNSPPGKDPARISGPYNTSNCIQPFCITEPSCQVSCFSPRLSSNQQQGRKPKRGDHLSKTQQHLSRSLPQLVAEPTEARSNSFVGTHEYLAPEIIKGEGHGAAVDWWTFGVLLYELLYGKTPFKGYNNDETLANVVLQNLKFPDSPLVSFQAKDLIRGLLVKEPENRLGSEKGSVEIKRHPFFEGLNWALIRCAIPPELPDFYEYGGGPEAAADSPGGSNNRYLECKAIGDHLEFELF
binds | binds | binds | binds | KIPK1_(84–582) (domain or fragment, UniProt Q9LFA2 84-582) SAGPSRTTSPSKRIASMKKPGTPQSPRFVGLSDSVSLKQALRDRCISKASEMAAQKRLSKSAAASPRVSEADRIKSLYNQVSNESTSSRSGLVPVDKGKGSLVEIPLMPVNDKPSSSKSVPQRFEDPSNPISEPSQAGTSFGLQGVGNQTREIKLLHRSNKPGSCLSSGSGDYEIELDENVASPSTHAFVEDDVIEIDKHVTSLPSHSSKKVNATELDKNISSSAVDSEQKGKLDDAPNSGTENGKTVRKVTRMIPRPKQPKKKILLKKKLKIGVVSATYPTKDDEEIVPSLDSSANQLLCQRCHCSLKSTSIDDNPPSYTSSHNPKICTDSLSSVSNKEAHQGSDENSSGSCNVSQSSEADIVIMKQDVSSSNNSGIGAMVEKETENPTSSEKFEFSLSSKDSLGDYSRSTSISEESNLSRFSCGNKPHMSMDVRWEAIKHIKVQYGSLGLRHFNLLKKLGCGDIGTVYLAELIGTNCLFAIKVMDNEFLARRKKSPR
no binding | no binding | no binding | no binding | KIPK2_(277–948) (domain or fragment, UniProt Q9SJM3 277-948) PHMVIEDQLVEIDKHVTSLPSCSGSKVDTEELDKSIVSSARVKSEPTALSSGLKGKLDNFPGSGTEKSKLVSKVTRNIPRPKPRPKKKILLKKKLKIVVNSATKMVEEVDTSLEPSASQLLCQKCHCAVKSTSTENHPPSNTSHTTDKNVSIEADQESLASPRLIRIVKCNKEASKGSSDSCEVSDSGEAVIVMKQEVSPSNYSGKGDADEQIRANPTSSEKFDFSLSSKNSLGDYSSSTSMSEESNLSRFSCGNKPHMSMDVRWEAVKHVKLQYGSLGLRHFNLLKKLGCGDIGTVYLAELVGTNCLFAIKVMDNEFLARRKKTPRAQAERAILKMLDHPFLPTLYAQFTSDNLSCLVMEYCPGGDLHVLRQKQLSRCFSEPATRFYVAEILLALEYLHMLGVIYRDLKPENILVREDGHIMLTDFDLSLRCAVNPTLLRSTSPPEKDPARMSGPYSTSNCIQPLCIEPSCRVPCFSPRLLSTQARNQKPRKPKRPDLLTQQFRSLPQLVAEPTEARSNSFVGTHEYLAPEIIKGEGHGAAVDWWTFGVLLYELLYGKTPFKGYDNEETLSNVVYQNLKFPDSPLVSFQAKELIRRLLVKDPESRLGSEKGAAEIKRHPFFEGLNWALIRCAIPPELPDIYDNGATEATSPEGNNRYLECKAIGDHLEFEL
